The source of these data is US20060258562A1.

Protein sequences, listed by entry. Tags and fused reporters are not part of them. Lines headed by an entry give the natural chain unless they say otherwise; changes in a name come on top. Residues count along the entry.
UniProt P42227, residues 2-770: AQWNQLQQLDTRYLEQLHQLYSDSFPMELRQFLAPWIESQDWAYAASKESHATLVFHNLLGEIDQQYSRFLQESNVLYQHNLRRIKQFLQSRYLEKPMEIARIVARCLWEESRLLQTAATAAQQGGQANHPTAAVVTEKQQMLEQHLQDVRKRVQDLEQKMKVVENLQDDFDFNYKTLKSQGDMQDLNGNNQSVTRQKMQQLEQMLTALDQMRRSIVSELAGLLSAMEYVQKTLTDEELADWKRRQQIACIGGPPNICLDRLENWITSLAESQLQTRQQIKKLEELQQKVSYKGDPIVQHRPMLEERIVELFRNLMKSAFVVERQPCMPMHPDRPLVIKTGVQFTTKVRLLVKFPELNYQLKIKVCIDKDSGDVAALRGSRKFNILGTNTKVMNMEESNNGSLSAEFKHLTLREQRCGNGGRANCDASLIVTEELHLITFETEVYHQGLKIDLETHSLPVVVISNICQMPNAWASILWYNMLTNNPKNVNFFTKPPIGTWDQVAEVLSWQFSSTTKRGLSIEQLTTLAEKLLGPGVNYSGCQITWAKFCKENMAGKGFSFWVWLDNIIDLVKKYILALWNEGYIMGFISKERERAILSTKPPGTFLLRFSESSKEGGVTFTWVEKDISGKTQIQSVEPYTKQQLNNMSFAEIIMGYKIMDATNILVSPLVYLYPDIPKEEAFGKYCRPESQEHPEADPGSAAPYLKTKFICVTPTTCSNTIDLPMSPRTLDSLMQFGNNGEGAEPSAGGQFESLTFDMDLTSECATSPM
UniProt P28867: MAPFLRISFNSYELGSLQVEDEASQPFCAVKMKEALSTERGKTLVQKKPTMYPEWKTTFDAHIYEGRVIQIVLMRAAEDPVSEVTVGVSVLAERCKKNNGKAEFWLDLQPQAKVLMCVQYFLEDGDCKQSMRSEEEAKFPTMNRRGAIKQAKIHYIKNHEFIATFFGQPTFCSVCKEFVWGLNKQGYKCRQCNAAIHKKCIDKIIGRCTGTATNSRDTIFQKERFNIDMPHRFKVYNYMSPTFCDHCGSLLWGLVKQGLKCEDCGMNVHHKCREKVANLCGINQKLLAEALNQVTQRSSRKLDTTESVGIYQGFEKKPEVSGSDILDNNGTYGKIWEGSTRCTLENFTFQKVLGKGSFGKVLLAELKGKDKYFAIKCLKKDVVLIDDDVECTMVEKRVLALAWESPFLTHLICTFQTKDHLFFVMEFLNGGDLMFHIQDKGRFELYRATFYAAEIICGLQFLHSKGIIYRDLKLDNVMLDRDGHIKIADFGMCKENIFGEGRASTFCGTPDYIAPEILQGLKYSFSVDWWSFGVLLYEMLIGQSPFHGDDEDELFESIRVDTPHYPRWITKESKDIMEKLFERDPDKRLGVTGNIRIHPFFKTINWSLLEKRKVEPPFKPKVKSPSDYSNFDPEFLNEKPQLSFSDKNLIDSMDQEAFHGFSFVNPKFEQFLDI

No constants are given. Whether binding was seen depends on the method and setting. In cells and extracts the contact can be indirect. Some entries that bind do so weakly or less than the wild type.

Assay [1] addresses STAT3 (Signal Transducer and Activator of Transcription 3) (mouse) (UniProt P42227). The assay is described as follows: co-immunoprecipitation with isoform specific PKC antibodies, anti-STAT3 Western blot. In general terms: Immunoblotting shows a protein as a band on a membrane.
Assay [2] shares this target. As to the kind of experiment: co-immunoprecipitation from primary keratinocyte lysates.

With “PKCδ (protein kinase C delta) (from UniProt P28867 1-674) (enzyme)”, the binding result in assay [1] and in assay [2] was “binds” in each case.
